In the supplement of paper PMC3545927:
Only a part is listed here, and it is no random draw.

Amino acid sequences for entries named in this document (tags omitted).
furin, P09958, UniProt P09958, whole entry: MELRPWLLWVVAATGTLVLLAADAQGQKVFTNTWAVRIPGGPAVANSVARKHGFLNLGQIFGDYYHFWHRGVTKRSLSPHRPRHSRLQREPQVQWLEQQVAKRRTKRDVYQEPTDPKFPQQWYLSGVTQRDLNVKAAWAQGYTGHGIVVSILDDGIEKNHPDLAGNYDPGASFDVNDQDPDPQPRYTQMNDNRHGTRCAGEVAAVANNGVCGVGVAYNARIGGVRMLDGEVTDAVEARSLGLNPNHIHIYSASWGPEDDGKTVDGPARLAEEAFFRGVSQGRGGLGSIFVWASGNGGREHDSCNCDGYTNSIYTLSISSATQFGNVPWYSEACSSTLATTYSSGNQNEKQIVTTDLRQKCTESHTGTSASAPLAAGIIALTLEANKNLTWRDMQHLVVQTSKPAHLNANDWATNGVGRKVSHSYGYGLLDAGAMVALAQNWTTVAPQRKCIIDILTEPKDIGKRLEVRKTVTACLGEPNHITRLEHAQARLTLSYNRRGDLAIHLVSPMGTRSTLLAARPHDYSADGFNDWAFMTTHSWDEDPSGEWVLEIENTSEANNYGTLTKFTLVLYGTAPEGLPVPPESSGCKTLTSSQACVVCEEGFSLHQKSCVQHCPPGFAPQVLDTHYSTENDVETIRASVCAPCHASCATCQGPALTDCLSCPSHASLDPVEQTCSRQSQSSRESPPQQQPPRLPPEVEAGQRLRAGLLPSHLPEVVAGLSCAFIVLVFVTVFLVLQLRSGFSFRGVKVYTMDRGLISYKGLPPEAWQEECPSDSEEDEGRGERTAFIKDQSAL

Molecular target: furin, P09958
Assay: furin cleavage Z-score vs untreated control; higher = more cleavage, active = 3.5 or more, inactive = 1 or less, 8 variable residues between constant flanks
Method: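 Multiplexed peptide-cDNA fusion cleavage assay. 8-mer variable peptides flanked by constant Cys-Ala (N-term) and Ala-Gly-Asn-Ala-Ser-Ala-Ser-Ala (C-term) and conjugated to a cDNA oligonucleotide were bead-immobilised via the N-terminus. They were treated with purified furin at a 1:10 enzyme:substrate ratio in 50 mM HEPES pH 7.5, 1 mM CaCl2, 100 mM NaCl for 7.5, 15 or 30 min. Released cDNA was counted by next-generation sequencing, and log counts versus no-furin controls were lowess-adjusted and converted to robust Z-scores.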

Sequence | furin cleavage Z-score (7.5 min) | furin cleavage Z-score (15 min) | furin cleavage Z-score (30 min)
CAEVPCHRDSAGNASASA [HC2391] | inactive: 0.533 | 1.52 | 1.63
CADIIRQKRLAGNASASA [FS-755] | 1.14 | 1.93 | 2.68
CAGPGRAQRSAGNASASA [FS-1200] | 1.54 | 1.32 | 2.77
CATTPCSGAWAGNASASA [HC1903] | 1.82 | 1.1 | 1.14
CARKRRSTNEAGNASASA [FS-2039] | active: 13.4 | active: 14 | active: 10.3
CALLHRAKKGAGNASASA [FS-1641] | 1.22 | 1.04 | 1.32
CAGSSRPYRCAGNASASA [FS-168] | 2.08 | 3.41 | 3.16
CASRARGPRRAGNASASA [FS-962] | 3.16 | 2.96 | 3.43
CARPAREVGDAGNASASA [FS-3199] | 2.69 | 2.98 | 2.5
CARALRSLDLAGNASASA [FS-2325] | active: 3.52 |  | active: 4.65
CASRYRAQRFAGNASASA [FS-565] | 1.07 | 1.35 | 3.3
CARMKRAGRVAGNASASA [FS-1751] | active: 5.19 | active: 5.19 | active: 5.87
CALGRRTKRAAGNASASA [FS-50] | active: 9.24 | active: 10.5 | active: 6.44
CATRVEAQLHAGNASASA [HC586] | 1.44 | 2.61 | 1.36
CAVLRRAKRRAGNASASA [FS-734] | 2.6 | 2.53 | 1.84
CARPARVARVAGNASASA [FS-860] | 2.3 | 2.11 | 2.27
CAGLMALTLSAGNASASA [HC573] | 1.05 | 1.63 | 1.98
CAEVPCHRNSAGNASASA [HC2401] | 1.53 | 1.42 | 1.12

2 successive entries already listed, quoted:
Sequence | furin cleavage Z-score (7.5 min) | furin cleavage Z-score (15 min) | furin cleavage Z-score (30 min)
CALLHRAKKGAGNASASA [FS-1641] | 1.22 | 1.04 | 1.32
CAGSSRPYRCAGNASASA [FS-168] | 2.08 | 3.41 | 3.16

Remaining list, next part:

Sequence | furin cleavage Z-score (7.5 min) | furin cleavage Z-score (15 min) | furin cleavage Z-score (30 min)
CAREVRSVAPAGNASASA [FS-2919] | 1.88 | 1.63 | 2.22
CALPRRGPRLAGNASASA [HC179] | 1.91 | 1.55 | 2.36
CAYCWHYPPKAGNASASA [HC403] | 1.04 | inactive: 0.468 | 2.44
CARQKRRTGAAGNASASA [FS-2757] | 1.21 | 3.29 | 2.88
CARPRRPRRPAGNASASA [FS-2745] | 2.24 | 1.74 | 1.75
CARKRRMQEEAGNASASA [FS-2349] | 1.31 | active: 4.08 | 2.78
CARKNRQIQDAGNASASA [FS-2425] | 1.86 | 2.84 | 1.09
CALSKRDTGAAGNASASA [FS-2125] | 3.27 | 2.39 | 1.16
CAMEGCSQHLAGNASASA [HC1716] | 1.23 | inactive: 0.47 | inactive: 0.552
CAPCSGSWLRAGNASASA [HC1146] | 2.4 | 2.67 | 2.29
CAGEECSQHLAGNASASA [HC1676] | inactive: 0.0385 | 1.42 | inactive: -0.903
CAKANLLSVEAGNASASA [HC1410] | inactive: -0.514 | inactive: -0.264 | inactive: -1.3
CARLRRSLPPAGNASASA [FS-2280] | active: 7.15 | active: 6.52 | active: 7.39
CAQSARKMRLAGNASASA [FS-483] | 1.38 | 1.46 | 1.3
CAMEELSQHLAGNASASA [HC4] | 1.85 | 1.23 | 1.84
CARDKRSALQAGNASASA [FS-1945] | active: 8.56 | active: 10.4 | active: 8.42
CAVRKRNVESAGNASASA [FS-2475] | 1.31 | 1.67 | 1.25
CAHTPCSAHLAGNASASA [HC2475] | inactive: -0.788 | inactive: -1.31 | inactive: -0.643
